Source: publication doi:10.1101/2022.06.07.495180
These are yes or no findings as the source states them, for the method shown. Binding seen in cells or lysates may run through a third protein. Some entries that bind do so weakly or less than the wild type.

By UniProt entry, the sequences of proteins in these tests, tags left out.
UniProt P06239: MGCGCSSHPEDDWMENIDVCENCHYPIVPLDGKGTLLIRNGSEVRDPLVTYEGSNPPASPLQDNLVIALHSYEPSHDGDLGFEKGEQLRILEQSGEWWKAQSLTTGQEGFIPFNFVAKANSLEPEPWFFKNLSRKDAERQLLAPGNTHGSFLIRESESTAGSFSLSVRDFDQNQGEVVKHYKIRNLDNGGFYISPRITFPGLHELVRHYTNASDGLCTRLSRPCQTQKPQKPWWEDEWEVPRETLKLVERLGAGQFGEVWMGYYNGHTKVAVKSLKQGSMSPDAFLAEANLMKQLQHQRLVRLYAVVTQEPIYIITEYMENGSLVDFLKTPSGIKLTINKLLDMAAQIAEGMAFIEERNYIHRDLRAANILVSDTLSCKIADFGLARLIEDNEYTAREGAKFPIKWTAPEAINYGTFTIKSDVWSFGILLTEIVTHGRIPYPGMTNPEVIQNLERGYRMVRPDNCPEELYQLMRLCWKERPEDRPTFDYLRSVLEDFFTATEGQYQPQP
UniProt Q9UKE5: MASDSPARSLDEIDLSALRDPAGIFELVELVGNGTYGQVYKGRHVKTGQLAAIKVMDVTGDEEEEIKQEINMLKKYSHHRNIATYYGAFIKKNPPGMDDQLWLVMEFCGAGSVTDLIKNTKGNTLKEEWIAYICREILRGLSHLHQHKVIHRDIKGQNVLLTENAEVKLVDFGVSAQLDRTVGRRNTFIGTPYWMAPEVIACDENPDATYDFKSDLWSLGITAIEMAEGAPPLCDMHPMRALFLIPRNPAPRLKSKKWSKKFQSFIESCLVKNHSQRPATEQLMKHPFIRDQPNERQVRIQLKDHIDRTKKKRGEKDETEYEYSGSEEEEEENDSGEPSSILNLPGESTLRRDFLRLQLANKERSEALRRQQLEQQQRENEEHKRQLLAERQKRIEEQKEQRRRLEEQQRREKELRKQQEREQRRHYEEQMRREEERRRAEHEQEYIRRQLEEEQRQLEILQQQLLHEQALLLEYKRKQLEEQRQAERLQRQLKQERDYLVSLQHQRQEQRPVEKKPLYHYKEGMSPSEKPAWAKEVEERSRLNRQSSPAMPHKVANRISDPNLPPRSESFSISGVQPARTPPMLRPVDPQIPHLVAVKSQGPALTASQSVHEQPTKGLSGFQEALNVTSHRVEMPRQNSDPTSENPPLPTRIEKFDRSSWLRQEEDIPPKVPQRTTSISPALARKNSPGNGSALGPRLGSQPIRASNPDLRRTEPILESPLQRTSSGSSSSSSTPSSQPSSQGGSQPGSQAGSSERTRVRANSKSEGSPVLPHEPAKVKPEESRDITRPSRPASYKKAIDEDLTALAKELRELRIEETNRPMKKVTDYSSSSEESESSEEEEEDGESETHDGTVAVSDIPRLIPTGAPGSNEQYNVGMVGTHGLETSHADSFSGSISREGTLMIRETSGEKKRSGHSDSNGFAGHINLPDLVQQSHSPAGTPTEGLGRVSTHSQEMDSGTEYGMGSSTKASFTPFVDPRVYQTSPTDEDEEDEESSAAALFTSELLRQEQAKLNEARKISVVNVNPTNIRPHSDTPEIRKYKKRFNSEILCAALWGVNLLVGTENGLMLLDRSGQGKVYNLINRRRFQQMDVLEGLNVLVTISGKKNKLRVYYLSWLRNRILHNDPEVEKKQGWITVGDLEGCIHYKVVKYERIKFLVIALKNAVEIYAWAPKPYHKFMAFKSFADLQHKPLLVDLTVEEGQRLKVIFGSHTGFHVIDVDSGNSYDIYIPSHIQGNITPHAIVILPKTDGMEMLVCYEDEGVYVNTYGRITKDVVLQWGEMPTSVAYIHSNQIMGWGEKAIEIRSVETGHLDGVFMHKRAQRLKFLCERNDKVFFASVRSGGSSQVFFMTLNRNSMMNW
UniProt P43403: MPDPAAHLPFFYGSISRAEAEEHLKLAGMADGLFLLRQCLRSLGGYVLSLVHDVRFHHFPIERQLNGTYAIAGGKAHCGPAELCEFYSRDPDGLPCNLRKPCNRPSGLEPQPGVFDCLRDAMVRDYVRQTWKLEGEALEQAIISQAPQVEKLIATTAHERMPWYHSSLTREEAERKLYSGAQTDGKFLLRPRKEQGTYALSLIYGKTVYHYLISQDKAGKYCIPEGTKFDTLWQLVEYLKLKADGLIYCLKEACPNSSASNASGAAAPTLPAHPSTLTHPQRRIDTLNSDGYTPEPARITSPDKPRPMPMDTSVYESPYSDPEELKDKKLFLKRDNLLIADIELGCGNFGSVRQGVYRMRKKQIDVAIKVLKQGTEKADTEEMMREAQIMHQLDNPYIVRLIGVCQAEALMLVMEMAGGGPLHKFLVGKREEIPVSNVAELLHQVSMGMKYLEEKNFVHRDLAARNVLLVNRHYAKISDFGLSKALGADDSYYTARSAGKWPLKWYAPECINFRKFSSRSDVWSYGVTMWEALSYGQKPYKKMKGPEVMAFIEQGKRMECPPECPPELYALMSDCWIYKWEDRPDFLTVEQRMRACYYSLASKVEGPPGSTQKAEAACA
UniProt Q13489: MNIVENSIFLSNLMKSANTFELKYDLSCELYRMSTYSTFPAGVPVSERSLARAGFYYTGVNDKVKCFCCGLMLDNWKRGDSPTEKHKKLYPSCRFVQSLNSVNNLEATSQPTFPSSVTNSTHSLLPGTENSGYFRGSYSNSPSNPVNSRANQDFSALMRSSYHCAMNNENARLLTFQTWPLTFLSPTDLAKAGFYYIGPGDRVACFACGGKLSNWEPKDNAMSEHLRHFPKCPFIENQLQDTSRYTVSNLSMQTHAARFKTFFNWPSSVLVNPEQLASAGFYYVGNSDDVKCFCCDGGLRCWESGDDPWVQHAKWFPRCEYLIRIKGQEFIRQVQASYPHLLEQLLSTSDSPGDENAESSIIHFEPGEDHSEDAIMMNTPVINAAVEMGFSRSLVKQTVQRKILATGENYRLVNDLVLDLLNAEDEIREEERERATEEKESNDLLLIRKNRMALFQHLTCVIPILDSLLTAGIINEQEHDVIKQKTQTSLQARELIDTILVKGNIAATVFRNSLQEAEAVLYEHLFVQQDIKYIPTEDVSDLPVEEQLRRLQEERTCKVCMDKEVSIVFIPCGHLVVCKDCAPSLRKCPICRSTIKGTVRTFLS

What was measured:
Test in all cases: co-IP
[1] = target: LCK (human (endogenous in primary T cells)) (UniProt P06239)
[2] = target: T1, TRAF1 (human (endogenous in primary T cells)) (UniProt Q13077)
T1 sequence: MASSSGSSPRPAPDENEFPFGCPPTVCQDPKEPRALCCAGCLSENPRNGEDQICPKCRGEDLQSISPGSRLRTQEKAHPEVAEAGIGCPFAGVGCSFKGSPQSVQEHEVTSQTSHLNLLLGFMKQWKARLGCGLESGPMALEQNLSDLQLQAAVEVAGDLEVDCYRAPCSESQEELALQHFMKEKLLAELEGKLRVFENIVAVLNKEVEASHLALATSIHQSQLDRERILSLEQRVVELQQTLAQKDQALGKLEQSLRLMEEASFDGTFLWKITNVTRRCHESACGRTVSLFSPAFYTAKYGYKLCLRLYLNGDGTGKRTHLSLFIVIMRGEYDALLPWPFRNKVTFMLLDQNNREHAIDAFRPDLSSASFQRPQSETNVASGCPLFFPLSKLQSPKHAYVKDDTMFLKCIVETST

[3] = target: T2, SLP76 (human (endogenous in primary T cells)) (UniProt Q13094)
T2 sequence: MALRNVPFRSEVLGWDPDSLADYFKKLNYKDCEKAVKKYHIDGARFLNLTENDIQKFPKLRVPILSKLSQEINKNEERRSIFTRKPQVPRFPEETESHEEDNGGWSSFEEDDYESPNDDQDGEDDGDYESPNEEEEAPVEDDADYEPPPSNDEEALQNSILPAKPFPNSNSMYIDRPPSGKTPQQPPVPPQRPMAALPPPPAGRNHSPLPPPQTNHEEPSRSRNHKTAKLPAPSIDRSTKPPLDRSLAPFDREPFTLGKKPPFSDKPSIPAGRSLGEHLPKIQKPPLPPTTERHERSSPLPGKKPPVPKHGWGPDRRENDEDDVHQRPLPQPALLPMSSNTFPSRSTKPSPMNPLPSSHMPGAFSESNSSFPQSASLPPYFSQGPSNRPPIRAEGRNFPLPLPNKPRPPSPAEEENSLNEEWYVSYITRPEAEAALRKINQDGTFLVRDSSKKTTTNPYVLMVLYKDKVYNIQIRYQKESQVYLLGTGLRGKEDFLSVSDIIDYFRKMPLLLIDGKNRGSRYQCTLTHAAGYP

[4] = target: TNIK (human (endogenous in primary T cells)) (UniProt Q9UKE5)

Molecule: ZAP70 (from UniProt P43403 1-619)
- binding [1]: binds

Molecule: BIRC3 (from UniProt Q13489 1-604)
- binding [2]: binds

B1: LAT (protein, UniProt O43561 1-262)
chain: MEEAILVPCVLGLLLLPILAMLMALCVHCHRLPGSYDSTSSDSLYPRGIQFKRPHTVAPWPPAYPPVTSYPPLSQPDLLPIPRSPQPLGGSHRTPSSRRDSDGANSVASYENEGASGIRGAQAGWGVWGPSWTRLTPVSLPPEPACEDADEDEDDYHNPGYLVVLPDSTPATSTAAPSAPALSTPGIRDSAFSMESIDDYVNVPESGESAEASLDGSREYVNVSQELHPGAAKTEPAALSSQEAEEVEEEGAPDYENLQELN
- binding [3]: binds

B2: TAK1 (protein, UniProt O43318 1-606)
chain: MSTASAASSSSSSSAGEMIEAPSQVLNFEEIDYKEIEVEEVVGRGAFGVVCKAKWRAKDVAIKQIESESERKAFIVELRQLSRVNHPNIVKLYGACLNPVCLVMEYAEGGSLYNVLHGAEPLPYYTAAHAMSWCLQCSQGVAYLHSMQPKALIHRDLKPPNLLLVAGGTVLKICDFGTACDIQTHMTNNKGSAAWMAPEVFEGSNYSEKCDVFSWGIILWEVITRRKPFDEIGGPAFRIMWAVHNGTRPPLIKNLPKPIESLMTRCWSKDPSQRPSMEEIVKIMTHLMRYFPGADEPLQYPCQYSDEGQSNSATSTGSFMDIASTNTSNKSDTNMEQVPATNDTIKRLESKLLKNQAKQQSESGRLSLGASRGSSVESLPPTSEGKRMSADMSEIEARIAATTAYSKPKRGHRKTASFGNILDVPEIVISGNGQPRRRSIQDLTVTGTEPGQVSSRSSSPSVRMITTSGPTSEKPTRSHPWTPDDSTDTNGSDNSIPMAYLTLDHQLQPLAPCPNSKESMAVFEQHCKMAQEYMKVQTEIALLLQRKQELVAELDQDEKDQQNTSRLVQEHKKLLDENKSLSTYYQQCKKQLEVIRSQQQKRQGTS
- binding [4]: binds

B3: GRAP2 (protein, UniProt O75791 1-330)
chain: MEAVAKFDFTASGEDELSFHTGDVLKILSNQEEWFKAELGSQEGYVPKNFIDIQFPKWFHEGLSRHQAENLLMGKEVGFFIIRASQSSPGDFSISVRHEDDVQHFKVMRDNKGNYFLWTEKFPSLNKLVDYYRTNSISRQKQIFLRDRTREDQGHRGNSLDRRSQGGPHLSGAVGEEIRPSMNRKLSDHPPTLPLQQHQHQPQPPQYAPAPQQLQQPPQQRYLQHHHFHQERRGGSLDINDGHCGTGLGSEMNAALMHRRHTDPVQLQAAGRVRWARALYDFEALEDDELGFHSGEVVEVLDSSNPSWWTGRLHNKLGLFPANYVAPMTR
- binding [4]: binds
